US20020098516A1
No constants are given. Whether binding was seen depends on the method and setting. Some entries that bind do so weakly or less than the wild type.

The chains behind the UniProt entries cited, without tags or fusion partners. Where a name states a change or a piece, a line headed by the entry shows the natural chain unless it says otherwise.
UniProt P02463: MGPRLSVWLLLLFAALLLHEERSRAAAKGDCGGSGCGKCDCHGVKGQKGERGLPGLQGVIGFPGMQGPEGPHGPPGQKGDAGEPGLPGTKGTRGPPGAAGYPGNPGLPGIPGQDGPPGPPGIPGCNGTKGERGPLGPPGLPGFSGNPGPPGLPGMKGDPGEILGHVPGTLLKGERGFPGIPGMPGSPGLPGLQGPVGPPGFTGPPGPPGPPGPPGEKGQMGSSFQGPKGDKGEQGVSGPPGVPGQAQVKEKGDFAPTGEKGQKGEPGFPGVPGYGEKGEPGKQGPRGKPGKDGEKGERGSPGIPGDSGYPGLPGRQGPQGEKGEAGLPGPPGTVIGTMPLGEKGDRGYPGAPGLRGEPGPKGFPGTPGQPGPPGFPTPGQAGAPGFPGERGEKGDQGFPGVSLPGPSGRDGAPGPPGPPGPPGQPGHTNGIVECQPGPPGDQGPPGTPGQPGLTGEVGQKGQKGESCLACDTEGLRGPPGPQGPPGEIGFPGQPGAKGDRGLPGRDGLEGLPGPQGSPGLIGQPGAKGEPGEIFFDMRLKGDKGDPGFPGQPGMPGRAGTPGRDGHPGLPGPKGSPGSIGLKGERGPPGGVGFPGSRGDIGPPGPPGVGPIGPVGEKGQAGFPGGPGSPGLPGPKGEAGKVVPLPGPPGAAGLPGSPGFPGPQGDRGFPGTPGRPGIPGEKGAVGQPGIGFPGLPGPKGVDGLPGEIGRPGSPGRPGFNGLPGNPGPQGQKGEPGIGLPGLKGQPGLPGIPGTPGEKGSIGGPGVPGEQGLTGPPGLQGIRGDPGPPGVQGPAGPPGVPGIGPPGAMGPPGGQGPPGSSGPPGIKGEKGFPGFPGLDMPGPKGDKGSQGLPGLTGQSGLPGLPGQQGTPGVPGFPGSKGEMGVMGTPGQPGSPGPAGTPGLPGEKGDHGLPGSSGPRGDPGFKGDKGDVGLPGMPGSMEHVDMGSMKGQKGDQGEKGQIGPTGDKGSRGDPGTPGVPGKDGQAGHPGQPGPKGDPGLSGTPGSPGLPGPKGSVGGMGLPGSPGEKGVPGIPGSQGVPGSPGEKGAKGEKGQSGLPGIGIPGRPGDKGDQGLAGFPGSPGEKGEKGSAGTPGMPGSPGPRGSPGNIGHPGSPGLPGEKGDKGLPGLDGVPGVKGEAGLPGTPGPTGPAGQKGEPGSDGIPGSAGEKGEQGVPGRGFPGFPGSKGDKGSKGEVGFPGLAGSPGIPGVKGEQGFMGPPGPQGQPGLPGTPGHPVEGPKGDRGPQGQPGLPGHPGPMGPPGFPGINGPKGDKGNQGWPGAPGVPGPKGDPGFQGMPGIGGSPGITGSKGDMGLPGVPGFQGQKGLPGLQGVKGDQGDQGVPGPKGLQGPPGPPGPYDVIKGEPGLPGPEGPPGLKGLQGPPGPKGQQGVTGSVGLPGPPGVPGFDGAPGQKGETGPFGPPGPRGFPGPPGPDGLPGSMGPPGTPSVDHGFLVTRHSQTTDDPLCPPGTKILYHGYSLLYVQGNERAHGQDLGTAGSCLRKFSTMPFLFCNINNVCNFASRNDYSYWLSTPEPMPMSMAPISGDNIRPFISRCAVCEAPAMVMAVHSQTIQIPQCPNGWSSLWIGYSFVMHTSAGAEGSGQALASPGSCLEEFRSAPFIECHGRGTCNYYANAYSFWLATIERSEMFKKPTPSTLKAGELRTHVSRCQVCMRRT
UniProt P08122: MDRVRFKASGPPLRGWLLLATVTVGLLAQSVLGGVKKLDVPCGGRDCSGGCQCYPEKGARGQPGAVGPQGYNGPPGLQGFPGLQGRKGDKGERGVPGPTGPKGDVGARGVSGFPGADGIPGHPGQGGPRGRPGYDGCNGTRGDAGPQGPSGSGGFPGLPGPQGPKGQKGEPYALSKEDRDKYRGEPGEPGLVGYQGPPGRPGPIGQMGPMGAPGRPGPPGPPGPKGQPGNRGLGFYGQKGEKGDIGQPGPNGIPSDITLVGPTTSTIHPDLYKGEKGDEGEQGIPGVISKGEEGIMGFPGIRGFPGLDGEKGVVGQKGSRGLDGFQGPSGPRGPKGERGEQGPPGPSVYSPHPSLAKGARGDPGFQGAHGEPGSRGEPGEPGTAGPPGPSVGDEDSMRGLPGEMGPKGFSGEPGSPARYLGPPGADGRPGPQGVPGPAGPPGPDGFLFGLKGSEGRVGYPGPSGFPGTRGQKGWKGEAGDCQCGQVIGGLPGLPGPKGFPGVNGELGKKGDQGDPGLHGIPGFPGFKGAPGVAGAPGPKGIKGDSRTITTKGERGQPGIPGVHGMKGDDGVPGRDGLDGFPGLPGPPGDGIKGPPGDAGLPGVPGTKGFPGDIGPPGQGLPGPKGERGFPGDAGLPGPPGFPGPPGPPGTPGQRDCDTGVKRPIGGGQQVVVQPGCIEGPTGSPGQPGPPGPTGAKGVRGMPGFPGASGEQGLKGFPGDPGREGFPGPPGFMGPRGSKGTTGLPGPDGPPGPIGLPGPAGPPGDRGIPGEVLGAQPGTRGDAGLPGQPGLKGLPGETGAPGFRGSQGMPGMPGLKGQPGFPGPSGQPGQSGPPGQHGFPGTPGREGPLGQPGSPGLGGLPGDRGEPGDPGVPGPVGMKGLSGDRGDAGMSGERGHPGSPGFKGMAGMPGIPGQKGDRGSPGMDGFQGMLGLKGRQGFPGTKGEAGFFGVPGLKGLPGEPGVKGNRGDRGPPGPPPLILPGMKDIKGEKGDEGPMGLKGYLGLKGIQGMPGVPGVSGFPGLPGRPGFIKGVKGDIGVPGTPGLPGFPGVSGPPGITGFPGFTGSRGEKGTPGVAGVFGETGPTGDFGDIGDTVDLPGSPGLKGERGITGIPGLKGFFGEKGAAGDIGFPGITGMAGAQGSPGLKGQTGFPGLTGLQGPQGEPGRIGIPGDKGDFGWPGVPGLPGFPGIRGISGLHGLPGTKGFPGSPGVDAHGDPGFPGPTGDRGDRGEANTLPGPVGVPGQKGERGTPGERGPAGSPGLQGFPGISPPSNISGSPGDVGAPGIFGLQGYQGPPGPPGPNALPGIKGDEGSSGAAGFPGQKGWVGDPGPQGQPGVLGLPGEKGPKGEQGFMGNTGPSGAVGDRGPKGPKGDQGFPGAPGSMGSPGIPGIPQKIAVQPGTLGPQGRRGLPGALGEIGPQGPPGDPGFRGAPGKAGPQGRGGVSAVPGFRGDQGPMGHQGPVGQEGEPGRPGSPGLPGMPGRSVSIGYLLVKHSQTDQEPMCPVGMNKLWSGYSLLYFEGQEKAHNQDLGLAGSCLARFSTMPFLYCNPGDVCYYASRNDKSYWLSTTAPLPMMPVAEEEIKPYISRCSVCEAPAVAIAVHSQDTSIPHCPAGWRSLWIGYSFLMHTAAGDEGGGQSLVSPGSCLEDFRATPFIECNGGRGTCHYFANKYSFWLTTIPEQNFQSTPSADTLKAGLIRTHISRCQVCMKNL

Target: type IV collagen (murine, α1(IV) and α2(IV) chains, from tissue matrix extracts) (murine) (UniProt P02463+P08122)
Test: direct immunoprecipitation of tissue extracts with anti-collagen α1(IV) antibodies, western blot with antibody 2

binding: binds
B1: usherin protein (mouse, native, from tissue extracts) (protein, UniProt Q2QI47-2 35-1461, looked up)
chain: VFPRLENVGAFRKVSTVPTHATCGFPGPSTFCRSPVAAEHVQLCTERLCIQDCPYRSASPLYTALLEGLRSCIPADDGDLHPYSRSSSVSFMFGSHQNCPSLRAPRLAAELTLAVWLKLEQGGTMCVIEKTVDGQIVFKVTISEKETMFYYRTVNGLQPPIKVMTPGRILMKKWIHLTVQVHQTAISFFVDGLEENSTAFDTRTLHDSVTDSVSSVIQVGQSLNGSEQFVGRMQDFRLYNVSLTNREILEVFSGDFPHLHIQPHCRCPGSHPRVHPSVQQYCIPNGAGDTPEHRMSRLNPEAHPLSFINDDDVATSWISHVFTNITQLYEGVAISIDLENGQYQVLKVITQFSSLQPVAIRIQRKKADSSPWEDWQYFARNCSVWGMKDNEDLENPNSVNCLQLPDFIPFSHGNVTFDLLTSGQKHRPGYNDFYNSSVLQEFMRATQIRLHFHGQYYPAGHTVDWRHQYYAVDEIIVSGRCQCHGHAETCDRTRRPYRCLCSPHSFTEGPQCDRCSPLYNDKPFRSGDNVNAFNCKPCQCHGHASSCHYDASVDPFPLEHNRGGGGVCDDCQHHTTGRHCESCQDYFYRPVGADPAAPDACKLCDCNRAGTRNGSLHCDPIGGQCDCKRRVSGRQCLQCQDGFYDLQALDPDGCRPCNCNPSGTVDGDITCHQNSGQCSCKANVIGLRCNRCNFGFKFLQSFNGDGCEPCQCNLHGSVNQLCDPLSGQCACKKEAKGLKCDSCRENFYGLPWSACEVCDCSKAGSQPGTVCDTETGQCVCKPNVGGRQCSQCKAGYFNLYQNDSHLCLTCNCEKMGTVNGSLRCDKSTGQCPCKLGVTGLRCHQCKPHRFNLTMDNPQGCQACDCDSLGTLPGSMCDPISGQCLCLPHRQGRRCEQCQPGFYSSPSNATGCLPCLCHTAGAVSHICNSVTGQCSCHDPSTTGRSCHQCQESYFRFDPLTGRCRPCHCHVAGASNGTCDAVTGQCFCKEFVTGSKCDTCVPGASHLDVNNLLGCSKTPSQQPPPRGWVQSSSTINVSWSPPECPNAHWLTYTLFRNGSEIYTTEDEHPYYTQYFLDTSLSPHTAYSYYIETSNVHSSTRSIPVIYETKPEVSEGHLNLTHIIPVGSDSITLTWTGLSNSSDPVAKYVLSCTPVDSTEPCVSYEGPETSATIWNLVPFTQYCFSVQGCTNESCFYSLPIIVTTAQAPPQTQGPPTVWKISPTELRIEWSPPVDSNGIIISYELYMRRWLSTEESLVFESHGLVSSHSALQSVNPSKNLLQQPQASTFISGLEPHTEYAFRVLAVNMAGRVSSAWASERTGESVPVFMAPPSVSPLSPHSLSVSWEKPAENFTRGEIIGYKISMVSEHFPLHDVPVMCSKMVHFAKSQDQSYIVRGLEPYRTYSFTVSLCDSVGCVTSALGSGQTLAAGK
